Here are results for 1 substance from article PMC4265755.

Protein sequences, listed by entry. Tags and fused reporters are not part of them. Residues count along the entry.
UniProt P78423, residues 25-397: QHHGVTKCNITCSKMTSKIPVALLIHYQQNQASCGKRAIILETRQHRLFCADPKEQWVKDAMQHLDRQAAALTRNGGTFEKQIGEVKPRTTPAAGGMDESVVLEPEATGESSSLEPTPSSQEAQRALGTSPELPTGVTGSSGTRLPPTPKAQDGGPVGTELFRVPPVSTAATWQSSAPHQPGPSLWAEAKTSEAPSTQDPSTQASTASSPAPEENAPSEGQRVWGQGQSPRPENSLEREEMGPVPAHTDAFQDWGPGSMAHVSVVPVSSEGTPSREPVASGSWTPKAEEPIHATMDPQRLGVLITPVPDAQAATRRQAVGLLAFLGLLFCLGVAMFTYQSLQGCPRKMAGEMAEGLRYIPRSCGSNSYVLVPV

These are yes or no findings as the source states them, for the method shown. In cells and extracts the contact can be indirect. Some results given as binding are weak or reduced against the parent protein; the word gives no strength.

This assay has as its target native CX3CL1 in the BRET assay (human) (UniProt P78423). Nature of the assay: FRET or BRET; BRET between copies of the same CX3CL1 form; methods not shown (supplementary Fig. S1).

Take “native CX3CL1 in the BRET assay (from UniProt P78423 25-397) (ligand)”: the binding result is reported as “binds”.
